{"source": "paper PMC6219514", "about": "“Structural basis of Gip1 for cytosolic sequestration of G protein in wide-range chemotaxis” (Nature Communications, 2018)", "binders": {"B1": {"name": "Gβ, endogenous (protein, UniProt P36408 1-347)", "chain": "MSSDISEKIQQARRDAESMKEQIRANRDVMNDTTLKTFTRDLPGLPKMEGKIKVRRNLKGHLAKIYAMHWAEDNVHLVSASQDGKLLVWDGLTTNKVHAIPLRSSWVMTCAYSPTANFVACGGLDNICSIYNLRSREQPIRVCRELNSHTGYLSCCRFLNDRQIVTSSGDMTCILWDVENGTKITEFSDHNGDVMSVSVSPDKNYFISGACDATAKLWDLRSGKCVQTFTGHEADINAVQYFPNGLSFGTGSDDASCRLFDIRADRELMQYTHDNILCGITSVGFSFSGRFLFAGYDDFTCNVWDTLKGERVLSLTGHGNRVSCLGVPTDGMALCTGSWDSLLKIWA"}}, "key": {"[1]": {"target": "T1, F2G-Gγ(ΔCAAX) (Dictyostelium discoideum) (UniProt Q95ZG8)", "T1 sequence": "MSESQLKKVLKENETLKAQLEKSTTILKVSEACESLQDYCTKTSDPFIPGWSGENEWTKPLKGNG", "assay": "co-IP; 'pull-down assay': Dictyostelium cells expressing Flag-tagged proteins starved 2 h, lysed in CHAPS buffer (40 mM HEPES pH 7.5, 120 mM NaCl, 0.3% CHAPS); supernatant with anti-Flag M2 beads, 4 °C, 1.5 h; immunoblot"}, "[2]": {"target": "T2, F2G-Gγ(WT) (Dictyostelium discoideum) (UniProt Q95ZG8)", "T2 sequence (chain, C-terminal cysteine Cys66 geranylgeranylated and methylated)": "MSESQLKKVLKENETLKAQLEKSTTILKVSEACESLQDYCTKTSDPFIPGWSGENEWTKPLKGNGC", "assay": "co-IP; isolation of Gβγ for the in vitro assay: lysate in NP40 buffer (40 mM HEPES pH 7.5, 300 mM NaCl, 1% NP40) with anti-Flag M2 beads, 4 °C, 1 h, washed; Flag-tagged Gγ as bait"}}, "note": "These are yes or no findings as the source states them, for the method shown. Binding seen in cells or lysates may run through a third protein. Some results given as binding are weak or reduced against the parent protein; the word gives no strength.", "data": [{"binder": "B1", "values": [{"measurement": "binding", "setting": "[1]", "result": "binds"}, {"measurement": "binding", "setting": "[2]", "result": "binds"}]}]}
